Measured values from PubChem BioAssay AID1259354 (Paczesny and Yang Labs, IUPUI and University of Michigan, 2018).
In all, about 78,000 compounds went through this assay and about 1,800 (2.3%) were called active. Inconclusive results, whose numbers are uncertain, are shown with a selection of clear calls. No stated cut-off is given here; in the data, active means inhibition above about 30%; inconclusive means mostly about 10% to 28%; inactive means weaker than that.

Sequences of proteins named here, by UniProt entry; tags and fusion partners are left off. A change or cut given only in a name is not applied to a line headed by its entry.
UniProt Q01638: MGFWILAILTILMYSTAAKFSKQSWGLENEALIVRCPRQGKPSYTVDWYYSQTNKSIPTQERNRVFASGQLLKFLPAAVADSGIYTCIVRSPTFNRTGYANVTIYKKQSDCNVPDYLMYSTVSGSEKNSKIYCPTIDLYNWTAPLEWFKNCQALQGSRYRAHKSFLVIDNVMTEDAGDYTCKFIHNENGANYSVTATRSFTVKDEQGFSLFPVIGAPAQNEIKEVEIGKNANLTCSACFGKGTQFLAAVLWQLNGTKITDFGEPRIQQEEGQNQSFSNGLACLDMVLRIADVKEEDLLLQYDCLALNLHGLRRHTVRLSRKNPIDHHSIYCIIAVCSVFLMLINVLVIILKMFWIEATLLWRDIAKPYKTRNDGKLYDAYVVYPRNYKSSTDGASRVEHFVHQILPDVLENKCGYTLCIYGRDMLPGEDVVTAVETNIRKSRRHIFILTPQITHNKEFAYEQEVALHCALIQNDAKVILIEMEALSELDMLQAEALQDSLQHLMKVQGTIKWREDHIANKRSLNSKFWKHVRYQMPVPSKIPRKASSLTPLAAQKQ

Biological target: Interleukin-1 receptor-like 1 (Homo sapiens) (UniProt Q01638)
Assay: blocks human ST2 binding to IL-33, primary screen, biochemical, AlphaLISA (AID 1259354)
Conditions: AlphaLISA ST2-Fc/biotin-IL-33 interaction, 1 h; at 17 µM, hits give high values

| Structure (SMILES) | inhibition |
| --- | --- |
| O=C(NCCN1CCOCC1)c1cc(-c2cccs2)nc2ccccc12 | inconclusive: 12% |
| COc1ccc(CN2CCCC(Nc3ccc(F)cc3)C2)c(OC)c1OC (configuration not stated) | inactive |
| COc1ccc(C=Nc2cc(Cl)c(N)c(Cl)c2)cc1 | active: 85% |
| COc1ccccc1/C=C/C1=NC(=C\c2ccccc2Cl)/C(=O)O1 | inactive |
| COc1ccc(OC)c(N2C(=O)CC(N3CCN(c4ccc(F)cc4)CC3)C2=O)c1 (configuration not stated) | active: 31% |
| CC1(C)CC(=O)C(Sc2ccc(Br)cc2)=C(OC(=O)c2ccco2)C1 | inconclusive: 18% |
| COc1ccc(CNC(=O)c2cccc([N+](=O)[O-])c2C)cc1 | inconclusive: 11% |
| CC(=O)N(C)c1ccc(OCC(O)Cn2c3ccccc3c3ccccc32)cc1 (configuration not stated) | inconclusive: 16% |
| O=C(c1ccc2c(c1)no[n+]2[O-])N1CCO[C@@H]2CCCC[C@H]21 | inconclusive: 12% |
| Clc1ccc(-c2csc(=Nc3ccccc3)n2CCCN2CCOCC2)cc1 | active: 64% |
| COc1ccc(/C=C2/SC(=O)N(CC(=O)NCCO)C2=O)cc1OC | inconclusive: 12% |
| Nc1nc2n(n1)C(c1ccco1)CC(c1ccc(Br)cc1)N2 (configuration not stated) | inconclusive: 17% |
| COc1ccc2[nH]c(C(=O)N(C)Cc3cnccn3)c(C)c2c1 | inconclusive: 10% |
| CN(C(=O)c1cccs1)C(Cc1ccccc1)C1CCN(C(=O)c2ccc(-n3cccn3)cc2)CC1 (configuration not stated) | inactive |
| Cc1cc(C)c(S(=O)(=O)N2CCN(c3ccccn3)CC2)c(C)c1 | inconclusive: 17% |
| COc1ccc(-c2cc(O)c3c(C)oc(C)c3c(=O)c2)cc1 | inconclusive: 18% |
| COc1ccc(OC)c(NC(=O)CN(C2CCCCC2)S(=O)(=O)c2ccc(F)cc2)c1 | inconclusive: 11% |
| CC1=C(C(=O)Nc2ccccc2)C(c2ccccc2)n2c(s/c(=C\c3cccs3)c2=O)=N1 (configuration not stated) | inconclusive: 17% |
| CC(=O)N1N=C(c2ccc([N+](=O)[O-])cc2)CC1c1ccccc1 (configuration not stated) | inconclusive: 16% |
| COc1ccc2nc(N=C(N)NC(=O)Nc3ccccc3)nc(C)c2c1 | inactive |
| COc1ccc(OC)c(C(=O)c2ccc(C(=O)Nc3ccccc3)cc2)c1 | inconclusive: 11% |
| CCOC(=O)c1c(NC(=O)c2ccc(N(C)C)cc2)sc2c1CCC2 | inactive |
| CCN(Cc1ccccc1)Cc1ccc(OC)c(OC)c1 | inconclusive: 15% |
| CCOc1ccc(C(=O)Nc2sc3c(c2C(=O)NC)CCCC3)cc1 | inconclusive: 10% |
| O=C(NC1CCCCC1)N1Cc2[nH]cnc2C[C@H]1c1nc(-c2ccc3c(c2)OCO3)no1 | inconclusive: 10% |

| Structure (SMILES) | inhibition |
| --- | --- |
| Cc1cccc(C(=O)Nc2ccccc2C(F)(F)F)c1 | inconclusive: 21% |
| CCN(CCN(C)C)Cc1ccc(C(C)C)cc1 | inactive |
| CN(Cc1cccc2ncccc12)C(=O)C(C)(C)NC(=O)c1cccs1 | inconclusive: 10% |
| COCCCCC(=NOCCN)c1ccc(C(F)(F)F)cc1 | inconclusive: 12% |
| O=C1NC(=Nc2ccccc2)S/C1=C/c1ccc(F)c(Br)c1 | active: 43% |
| COc1ccc(-n2c(SCC(=O)Nc3nccs3)nc3c([nH]c4ccccc43)c2=O)cc1 | inconclusive: 10% |
| O=C(CCN1C(=O)c2ccc([N+](=O)[O-])cc2C1=O)Nc1ccccc1-c1ccccc1 | inconclusive: 16% |
| COc1cc(-c2cccc(C(=O)O)c2)ccc1NC(C)=O | inconclusive: 15% |
| O=C(C1CC1)N1CCc2c(ncnc2NCc2cnc3ccccn23)C1 | inconclusive: 17% |
| CCC(C)(C)c1nnc(NC(=O)NCc2ccc(F)cc2F)s1 | inactive |
| COc1ccc2nc(NS(=O)(=O)c3ccc([N+](=O)[O-])cc3)sc2c1 | inconclusive: 27% |
| O=[N+]([O-])c1ccc(Sc2ncnc3nc[nH]c23)c([N+](=O)[O-])c1 | inconclusive: 16% |
| COc1ccccc1CNC(=O)C1CCC(=O)N(CCCc2ccccc2)C1 (configuration not stated) | inconclusive: 12% |
| N#CC1=C2SCN(Cc3ccccc3)CN2C(=O)CC1c1ccccc1Cl (configuration not stated) | inconclusive: 14% |
| C=CCOc1c(Cl)cc(C2C(C(=O)OCC)=C(C)NC3=C2C(=O)c2ccccc23)cc1OC (configuration not stated) | inconclusive: 10% |
| O=C(Nc1ccncc1)c1ccccc1F | inconclusive: 26% |
| C=CCNC(=O)C(=O)Nc1ccccc1C | inactive |
| O=C(c1cccc([N+](=O)[O-])c1)n1cnc2ccccc21 | inconclusive: 10% |
| COc1ccc(Nc2cc(C)nc(Nc3ccc(NC(=O)c4cccc(OC)c4OC)cc3)n2)cc1 | inconclusive: 21% |
| Cc1ccc(NC(=O)CN2CCCN(Cc3ccccc3)S2(=O)=O)cc1F | inactive |
| Brc1ccc(CN2CCN(Cc3ccc4c(c3)OCO4)CC2)o1 | inconclusive: 12% |
| CC(C)Cn1c(-c2ccc(S(=O)(=O)N3CCCC3)cc2)csc1=Nc1ccccc1 | inconclusive: 24% |
| CN(CCc1ccccn1)[C@H]1[C@@H]2OC[C@@H](O2)[C@@H](NCc2ccc(F)cc2)[C@@H]1O | active: 32% |
| Cc1nc(-c2ccccc2)c2c(=O)cc[nH]c2n1 | inconclusive: 11% |
| O=C(c1ccc(N2C(=O)C3C4C=CC(C4)C3C2=O)cc1)N1CCCCC1 (configuration not stated) | inactive |

Five entries from above, tab-delimited:
Structure (SMILES)	inhibition
COc1ccc(-n2c(SCC(=O)Nc3nccs3)nc3c([nH]c4ccccc43)c2=O)cc1	inconclusive: 10%
O=C(CCN1C(=O)c2ccc([N+](=O)[O-])cc2C1=O)Nc1ccccc1-c1ccccc1	inconclusive: 16%
COc1cc(-c2cccc(C(=O)O)c2)ccc1NC(C)=O	inconclusive: 15%
O=C(C1CC1)N1CCc2c(ncnc2NCc2cnc3ccccn23)C1	inconclusive: 17%
CCC(C)(C)c1nnc(NC(=O)NCc2ccc(F)cc2F)s1	inactive

(list continues)

| Structure (SMILES) | inhibition |
| --- | --- |
| CCCOc1ccc(C2=NNC(=O)CC2)cc1 | inconclusive: 13% |
| O=C1N=C(N2CCCC2)S/C1=C/c1cccc(O)c1 | inactive |
| Cc1[nH]nc(SCC(=O)Nc2c(C)n(C)n(-c3ccccc3)c2=O)c1[N+](=O)[O-] | inactive |
| O=C1CC(N2CCN(Cc3ccc4c(c3)OCO4)CC2)C(=O)N1c1ccccc1 (configuration not stated) | inconclusive: 16% |
| CCN(CC)CCCNCc1cccc(C)c1 | inactive |
| Cc1ccc([C@@H]2Nc3ccc(C(=O)O)cc3[C@@H]3C=CC[C@@H]32)cc1 | active: 34% |
| CC(=O)c1ccc(OCc2cc(C(=O)N3CCCC3)no2)cc1 | inactive |
| NNC(=O)C1C(=O)NCC1c1ccccc1 (configuration not stated) | inactive |
| Cc1cccc(-n2ncc3c(Nc4ccc(F)c(Cl)c4)ncnc32)c1 | inactive |
| COc1ccccc1N=c1oc2c(OC)cccc2cc1C(N)=O | inconclusive: 13% |
| CCN(Cc1noc(C)n1)C(=O)c1cn(-c2ccccc2)nn1 | inconclusive: 10% |
| Cc1ccc(NC(=O)c2ccco2)cc1 | inconclusive: 11% |
| COc1ccc2c(c1)CCC1C2CC[C@@]2(C)C1CC[C@@H]2NCCCCCCN1C(=O)CCC1=O (some centres not stated) | inactive |
| Cc1cc(Br)ccc1OCC(=O)NCc1ccccn1 | inactive |
| CSc1ccccc1NC(=O)CCCn1nc([N+](=O)[O-])c(Br)c1C | inconclusive: 10% |
| COCCn1c(=O)c2c(nc3n2CCN3c2ccc(C)c(C)c2)n(C)c1=O | inconclusive: 17% |
| CC1=NN(c2ccccc2)C(=O)/C1=C\c1cc([N+](=O)[O-])c(Cl)cc1Cl | inconclusive: 11% |
| C=C(C)C1CCC(C)OC1c1ccc2c(c1)OCO2 (configuration not stated) | inconclusive: 21% |
| CN(Cc1nc2ccccc2[nH]1)C(=O)C1CCC(=O)N(CCCc2ccccc2)C1 (configuration not stated) | inactive |
| CC1=C[C@@H](CNC(=O)c2ccncc2)[C@H](C(C)C)C[C@H]1CC(=O)N1CCN(C)CC1 | inactive |
| Cc1ccccc1CSc1nnc2sc3ccccc3n12 | inconclusive: 14% |
| O=C(NCC1CCCO1)c1cc(Sc2cccc(Cl)c2)nc2ccccc12 (configuration not stated) | inactive |
| c1cc(Nc2cccc3nccnc23)c2nccnc2c1 | active: 40% |
| O=C(CN1C(=O)CCSc2ccccc21)Nc1ccc(Br)cc1 | inactive |
| COc1ccc(/C=C(\C#N)c2nc3ccc(C)cc3[nH]2)cc1O | active: 46% |

A second format for some results above.
Cc1[nH]nc(SCC(=O)Nc2c(C)n(C)n(-c3ccccc3)c2=O)c1[N+](=O)[O-]
  inhibition: inactive
O=C1CC(N2CCN(Cc3ccc4c(c3)OCO4)CC2)C(=O)N1c1ccccc1 (configuration not stated)
  inhibition: inconclusive: 16%

Further entries follow.

| Structure (SMILES) | inhibition |
| --- | --- |
| Cn1c(NC(=O)COc2ccc(Cl)cc2)nc2ccccc21 | inconclusive: 20% |
| Cc1ccc2cccc(OCCNC3CCSC3)c2n1 (configuration not stated) | inconclusive: 16% |
| O=C(CNC(=O)c1cccs1)NCc1ccc(F)cc1Cl | inactive |
| C=C(C)COc1ccccc1C(=O)NCCc1cc(=O)[nH]c(C)n1 | inconclusive: 13% |
| O=C1CC(N2CCN(c3ccc(F)cc3)CC2)C(=O)N1c1cccc([N+](=O)[O-])c1 (configuration not stated) | inactive |
| O=c1oc(-c2ccccc2)nc2c1C1(CCCC1)Cc1ccccc1-2 | active: 48% |
| O=C1/C(=C\c2ccc(F)cc2)N=C2CCCCCN12 | inconclusive: 21% |
| Cc1ccc(S(=O)(=O)NC(O)C(=O)c2cccs2)cc1 (configuration not stated) | inconclusive: 13% |
| c1ccc(-c2cnn3cc(CN4CC(n5cccn5)C4)cnc23)cc1 | inconclusive: 17% |
| FC(F)(F)CCc1ccnc(-c2cccc3c2OCC3)n1 | inconclusive: 20% |
| O=C1N=C(N2CCOCC2)S/C1=C/c1ccc(-c2ccccc2)o1 | active: 34% |
| Cc1ccc(NC(=O)CN2C(=O)c3cccnc3Sc3ccccc32)cc1F | inconclusive: 11% |
| c1ccc2oc(N3CCN(Cc4ccc(-n5cncn5)cc4)CC3)nc2c1 | inconclusive: 10% |
| CNC(C)(C)C(=O)NCCC1CN(C)CCO1 (configuration not stated) | inconclusive: 11% |
| Brc1ccc(NC2=NCCCCC2)cc1 | inconclusive: 14% |
| Cc1nn(-c2ccccc2)c2c1C(c1cccc([N+](=O)[O-])c1)C(C#N)=C(N)O2 (configuration not stated) | inactive |
| CNS(=O)(=O)c1ccc(CN2CCC(CN)C2)cc1 (configuration not stated) | inactive |
| Cc1cccc(NC(=O)CCC2CCN(C(=O)COc3ccc(Cl)cc3)CC2)c1 | inconclusive: 13% |
| COc1ccc(S(=O)(=O)N2C[C@@H]3C[C@H](C2)c2ccc(NS(=O)(=O)c4cccc(F)c4)c(=O)n2C3)cc1 | inconclusive: 16% |
| CCOc1ccc2c(=O)c(Oc3ccccc3)c(C)oc2c1C | inactive |
| C=CCNc1nc2ccccc2nc1NS(=O)(=O)c1ccc(Br)cc1 | active: 33% |
| COC(=O)C1=C(C)NC(C)=C([N+](=O)[O-])C1c1ccccc1C(F)(F)F (configuration not stated) | inconclusive: 13% |
